Measured values reported in patent US6406853B1, “Interventions to mimic the effects of calorie restriction” (The Regents of the University of California, priority 1999, dated 2002).
For part of these data: At least one structure is not confirmed: it was looked up by name or label, or the drawing left a doubt. Some results were stated once for a whole list of compounds, not compound by compound.

Experiments:
[1] = tested on: protein synthesis in the liver; details: fasted mice; dose used in the study; cited from earlier work
GRP78 mRNA = test: Hepatic GRP78 mRNA in fasted and refed mice (dot-blot); assay type: in vivo; details: liver
Description: Retired male Swiss-Webster breeder mice were purchased from Jackson Laboratories. Beginning 30 days before the studies, the mice were fed Monday and Wednesday 11 g and Friday 16.6 g of the control diet daily at 0900 h. In fasting-feeding studies, mice were deprived of food for 48 h, fed 5.5 g of the control diet at 0900 h, and killed 90 min later. The food was consumed within 30 min. Diabetes was induced by three weekly intraperitoneal injections of streptozotocin [10 mg/100 g body weight (b.w.)] in 50 mM sodium citrate, pH 4.5. Mice were diabetic one week after the last injection. Only mice with blood glucose level higher than 3 mg/ml were used. Mice injected with equivalent volumes of sodium citrate served as controls for the STZ-diabetic mice. Adrenalectomized and sham-operated mice were purchased from Jackson Laboratories. Dibutyryl cAMP (Sigma; 18 mg.100 g b.w.), and theophylline (Sigma; 3 mg/100 g b.w), glucagon (Sigma; 300 μg/100 g b.w.), dexamethasone (Sigma; 125 μg/100 g b.w), cycloheximide (Sigma; 4 mg.100 g b.w.), and puromycin (Sigma; 10 mg.100 g b.w.), were administered intraperitonealy to mice as specified in the figure legends. Mice received two doses of each drug or drug combination. […]
Mice were killed and the livers, kidneys, and muscle were removed. […] The RNA was analyzed using Northern blots to verify its integrity. Dot blots were used to quantify mRNA levels (24; 27). […]

SMILES | inhibition of protein synthesis in the liver [1] | basal level of GRP78 mRNA during starvation in adrenalectomized mice (GRP78 mRNA; fasted 48 h, i.p. 7.5 h and 1.5 h before killing) | feeding induction of GRP78 mRNA in adrenalectomized mice (GRP78 mRNA; i.p. 6 h before and 30 min after feeding)
COc1ccc(C[C@H](N)C(=O)N[C@H]2[C@@H](O)[C@H](n3cnc4c(N(C)C)ncnc43)O[C@@H]2CO)cc1 [puromycin] | greater than 95% | – | –
C[C@@H]1C[C@H]2[C@@H]3CCC4=CC(=O)C=C[C@]4(C)[C@@]3(F)[C@@H](O)C[C@]2(C)[C@@]1(O)C(=O)CO [dexamethasone] | – | increased the basal level of GRP78 mRNA during starvation, although not significantly | had no effect
